Consider one substance from patent US7354991B2, “Peptides for the diagnosis of schizophrenia” (Yeda Research and Development Co. Ltd, priority 2001, dated 2008).

This data set relates to plasma samples from non schizophrenic individuals. Nature of the data set: Enzyme immunoassay: binding of biotin-labeled peptide on streptavidine coated tubes to control plasma. Details: species or system human. The conditions noted are these: seems to be feasible; arbitrary cut-off definitions. The method, then:
• 1. Patients and control persons—Thirty-nine schizophrenic patients participated in this study. The following parameters were recorded: gender, age, duration of schizophrenia, number of hospitalizations, years of education and the psychiatric status (PANSS). Fifty plasma samples were obtained from a local blood bank. • 2. Plasma—Venous blood was drawn with heparin as […] from patients and control subjects. Plasma was obtained after centrifugation (4000 g; 15 mins. 4° C.). • 3. Peptide synthesis and biotin labeling—The peptides were synthesized on an Abimed 522 at a 10 micromol scale by Eurosequence b.v., (Nijenborgh 4: 9747 AG Groningen; The Netherlands) and labeled at the amino terminal with biotin containing a six carbon spacer. Peptide purity was routinely assessed by RP-HPLC and, when considered necessary, by laser desorption mass spectroscopy. The peptides were routinely dissolved in 1 ml water/DMF/DMSO (1:1:1; v/v/v). • 4. […] The absorbence was read at 450 nm spectrophotometrically. […]
Therefore, an experiment was carried out with the biotin-LVVGLCK as follows: the peptide was biotin-labeled and coated onto streptavidine coated tubes as explained above. Plasma samples of 39 schizophrenic patients and 50 control non schizophrenic individuals were tested with the coated peptide and the level of binding was determined by the enzyme immunoassay described above.

Bounds are passed on as bounds.

On to LVVGLCK, for which the “specificity of the diagnostic test” value was above 90%.
